Drawing on paper PMC10866537, this text covers binding for two molecules.

Chains of the proteins cited; added tags and fusions are not shown. Residues count along the entry.
UniProt Q07011, residues 24-255: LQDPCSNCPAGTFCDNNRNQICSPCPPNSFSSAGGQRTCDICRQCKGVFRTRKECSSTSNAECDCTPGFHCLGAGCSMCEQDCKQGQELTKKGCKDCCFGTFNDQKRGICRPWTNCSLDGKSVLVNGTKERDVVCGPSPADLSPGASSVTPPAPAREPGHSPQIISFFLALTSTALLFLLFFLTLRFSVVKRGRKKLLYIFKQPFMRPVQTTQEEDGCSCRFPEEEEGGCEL

Results are given in words; binding and its absence hold for the method and conditions named. Some entries that bind do so weakly or less than the wild type. Sequences can lack the tags named with a protein.

Assay [1] addresses 4-1BB on activated primary human T cells (human (endogenous in primary T cells)) (UniProt Q07011). The assay can be described thus: flow cytometry on cells; competition: 0.4 μM siglec-4–Fc preincubated with 0.4 to 10 μM soluble 4-1BB–HIS at RT 30 min, then on activated T cells on ice 30 min; AF647 anti-human IgG; only the binder purified. On the technique in general: Flow cytometry measures light scatter and fluorescence of single cells or particles in a stream.

Assay [2] has the same target. The assay can be described thus: flow cytometry on cells; siglec-4–Fc on resting or anti-CD3/CD28-activated primary human T cells after Fc Block; AF647 anti-human IgG; also after 4-1BB or nonspecific siRNA; only the binder purified.
For assay [3], the target named is T1, mouse siglec-4 expressed in HEK293 cells (mouse) (UniProt P20917).
T1 sequence: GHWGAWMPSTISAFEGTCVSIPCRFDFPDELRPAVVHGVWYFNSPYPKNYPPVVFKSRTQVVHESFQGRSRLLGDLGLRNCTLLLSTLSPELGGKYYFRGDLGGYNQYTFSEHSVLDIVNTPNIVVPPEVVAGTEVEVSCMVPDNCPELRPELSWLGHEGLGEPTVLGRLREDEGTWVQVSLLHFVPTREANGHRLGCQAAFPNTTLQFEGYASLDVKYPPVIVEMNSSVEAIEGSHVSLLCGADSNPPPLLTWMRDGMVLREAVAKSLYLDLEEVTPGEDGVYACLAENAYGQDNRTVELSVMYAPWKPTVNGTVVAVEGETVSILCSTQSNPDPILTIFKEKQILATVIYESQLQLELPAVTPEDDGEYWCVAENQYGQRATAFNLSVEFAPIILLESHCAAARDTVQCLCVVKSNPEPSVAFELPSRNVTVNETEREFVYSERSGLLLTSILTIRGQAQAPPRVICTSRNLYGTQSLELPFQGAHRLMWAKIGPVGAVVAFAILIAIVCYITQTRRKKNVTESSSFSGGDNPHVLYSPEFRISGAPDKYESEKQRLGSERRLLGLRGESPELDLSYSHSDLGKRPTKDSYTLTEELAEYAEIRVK
The experiment in a line: flow cytometry on cells; 1 μg m4-1BB–Fc on transfected HEK293 cells, AF647 anti-human IgG; only the binder purified.

B1: human siglec-4–Fc protein (Fc fusion, UniProt P20916 20-516)
chain: GHWGAWMPSSISAFEGTCVSIPCRFDFPDELRPAVVHGVWYFNSPYPKNYPPVVFKSRTQVVHESFQGRSRLLGDLGLRNCTLLLSNVSPELGGKYYFRGDLGGYNQYTFSEHSVLDIVNTPNIVVPPEVVAGTEVEVSCMVPDNCPELRPELSWLGHEGLGEPAVLGRLREDEGTWVQVSLLHFVPTREANGHRLGCQASFPNTTLQFEGYASMDVKYPPVIVEMNSSVEAIEGSHVSLLCGADSNPPPLLTWMRDGTVLREAVAESLLLELEEVTPAEDGVYACLAENAYGQDNRTVGLSVMYAPWKPTVNGTMVAVEGETVSILCSTQSNPDPILTIFKEKQILSTVIYESELQLELPAVSPEDDGEYWCVAENQYGQRATAFNLSVEFAPVLLLESHCAAARDTVQCLCVVKSNPEPSVAFELPSRNVTVNESEREFVYSERSGLVLTSILTLRGQAQAPPRVICTARNLYGAKSLELPFQGAHRLMWAKIGP
As for B1, the binding entry in assay [1] and in assay [2] was “binds” in each case.

B2: mouse 4-1BB–Fc protein (Fc fusion, UniProt P20334 24-187)
chain: VQNSCDNCQPGTFCRKYNPVCKSCPPSTFSSIGGQPNCNICRVCAGYFRFKKFCSSTHNAECECIEGFHCLGPQCTRCEKDCRPGQELTKQGCKTCSLGTFNDQNGTGVCRPWTNCSLDGRSVLKTGTTEKDVVCGPPVVSFSPSTTISVTPEGGPGGHSLQVL
For B2, the binding result in assay [3] is given as “binds”.
